This is an account of results in PubChem BioAssay AID1487 (National Center for Advancing Translational Sciences (NCATS), 2009).

Values joined by “and” are separate entries in the source; they are usually repeats but may differ in a detail not shown here. Identical values can stand only once. This is one part of the list. The main result of the screen is listed elsewhere. These columns were measured beside it and carry no call. The list favours compounds with an active or inconclusive main result. Potencies come from curve fits of mixed quality, noted in brackets.

The test is described as follows: qHTS Assay for Modulators of Lamin A Splicing. The conditions noted are these: HeLa LMNA splicing GFP/RFP minigene ratio, 48 h. The method, boiled down:
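Read-out is the ratio of GFP to DsRed2 object intensity, acquired by 488 nm laser-scanning cytometry on HeLa lamin A-EGFP minigene reporter cells. Compound incubation 48 hrs at 37 °C in Opti-MEM with 2% FBS; DMSO 0.5% final.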

Where [1] appears, read: measured here: GFP splicing reporter channel.
[2] abbreviates: measured here: RFP viability control channel.

As for `O=[N+]([O-])c1cccc(-c2c[n+]3c(n2-c2ccccc2)SCC3)c1`, the AC50 under setting [1] was 6.31 µM [falling, single point].

Turning to `CCCn1c(=O)c(C(=O)N/N=C/c2ccccc2F)c(O)c2ccccc21`, the concentration at half-maximal activity (AC50) is 5.62 µM [falling, partial curve] under setting [1] and 6.31 µM [falling, partial curve, poor fit] under setting [2].

As to `Cc1nc2ccccc2c2oc(C(=O)N3CCc4ccccc4C3)cc12`, the AC50 under setting [2] was 22.4 µM [rising, single point].

As for `Cc1[nH]n(C(N)=S)c(=O)c1N=Nc1ccc2ccccc2c1`, the AC50 under setting [2] is 5.01 µM [falling, partial curve, poor fit].

As to `O=C1C2C3c4ccccc4C(c4ccccc43)C2C(=O)N1CN1CCOCC1` (centres undefined), under setting [2], the AC50 was 5.62 µM [rising, single point].

As for `C/C=C/c1ccc(OCCOCCOc2cccc3cccnc23)c(OC)c1`, the AC50 under setting [2] is 5.62 µM [rising, full curve, poor fit].

Consider `CCC(C)(C)n1nnnc1C(c1ccccc1)N1CCN(Cc2ccccc2)CC1` (centres undefined), for which the half-maximal activity concentration (AC50) under setting [2] is 10 µM [falling, partial curve].

Consider `CCOC(=O)c1sc(NC(=O)Nc2cccc(Cl)c2)cc1C`, for which, under setting [2], the concentration at half-maximal activity (AC50) is 14.1 µM [rising, partial curve, poor fit].

For the compound `CCCn1c2ccccc2c2cnn(CC(=O)Nc3ccccc3OC)c(=O)c21`, the AC50 under setting [1] is 4.47 µM [rising, single point] and the half-maximal activity concentration (AC50) under setting [2] is 5.62 µM [rising, single point].

As for `O=c1c2[nH]c3ccccc3c2nc(SCc2ccccc2F)n1-c1ccc(F)cc1`, the AC50 is 35.5 µM [falling, single point] under setting [1] and 20 µM [falling, partial curve] under setting [2].

As for `Cc1nn(-c2ccccc2)c2c1N(CCCC(=O)NCc1ccc(OC(C)C)cc1)C(=O)CS2`, the concentration at half-maximal activity (AC50) under setting [2] was 1 µM [rising, full curve].

Turning to `COc1ccc(NC(=O)c2cc(S(=O)(=O)N(C)C)ccc2N2CCCC2)cc1Cl`, under setting [2], the AC50 is 6.31 µM [rising, partial curve].

As to `O=C(O)c1ccc(N2C(=O)/C(=C/C=C/c3ccccc3)SC2=S)cc1`, the AC50 under setting [2] is 0.01 µM [rising, full curve, poor fit].

For `Cc1[nH]n(-c2cccc(Cl)c2)c(=O)c1/C=N/n1c(C)nc2ccccc2c1=O`, the half-maximal activity concentration (AC50) under setting [2] is 12.6 µM [rising, partial curve, poor fit].

With `c1ccc2[nH]c(CN3CCN(c4ncnc5c4oc4ccccc45)CC3)nc2c1`, the AC50 runs as follows: under setting [1], 11.2 µM [rising, partial curve, poor fit]; under setting [2], 22.4 µM [rising, single point].

With `CCC(=NCCc1c(C)[nH]c2ccccc12)C1=C(O)CC(c2ccccc2)CC1=O` (centres undefined), under setting [2], the AC50 is 31.6 µM [falling, single point].

In the case of `CCNC(=S)N1CCN(c2cccc(C(F)(F)F)c2)CC1`, under setting [2], the concentration at half-maximal activity (AC50) is 20 µM [rising, single point].

In the case of `O=C(C1CCCCC1)N1CCCC(c2nc(-c3ccc(F)cc3)no2)C1` (centres undefined), under setting [1], the half-maximal activity concentration (AC50) was 14.1 µM [rising, single point].

On to `O=S(=O)(c1ccc(N2CCN(Cc3ccc4c(c3)OCO4)CC2)nc1)N1CCOCC1`, for which the half-maximal activity concentration (AC50) under setting [2] is 2 µM [rising, full curve, poor fit].

On to `CCn1c(=O)cc(SCC(=O)N2CCN(c3ccccn3)CC2)c2ccccc21`, for which, under setting [2], the AC50 is 35.5 µM [rising, single point].

Consider `CCOc1ccc(CNc2cccc(SC)c2)cc1`, for which, under setting [2], the AC50 is 11.2 µM [falling, partial curve].

For `COc1ccc(NC(=O)CSc2nc3ccccc3n2CC(=O)NCc2ccc(F)cc2)cc1`, under setting [2], the AC50 is 0.501 µM [rising, partial curve].

For `Cc1ccc2c(Cl)cc(Cl)c(OCC(=O)Nc3cc(S(=O)(=O)N(C)C)ccc3C)c2n1`, under setting [2], the AC50 is 35.5 µM [rising, partial curve].

For the compound `CC(=O)c1cccc(NC(=S)NC(=O)c2ccc(Br)cc2)c1`, the AC50 by setting is: under setting [1], 35.5 µM [rising, single point]; under setting [2], 35.5 µM [rising, single point].

Consider `Nc1ccc(S(=O)(=O)c2ccc(N)cc2)cc1`, for which the AC50 under setting [1] was 1.26 µM [falling, single point]; the AC50 under setting [2] was 1.41 µM [falling, single point] and 7.08 µM [falling, full curve, poor fit].

Regarding `O=S(=O)(c1ccc(OCC(O)CN2CCN(c3ccccc3O)CC2)cc1)N1CCOCC1` (centres undefined), the AC50 under setting [2] was 35.5 µM [rising, single point].

`O=C1OC(c2ccccc2)c2ccc3ccccc3c21` (centres undefined): the half-maximal activity concentration (AC50) runs as follows: under setting [1], 31.6 µM [rising, single point]; under setting [2], 31.6 µM [rising, single point].

`O=Cc1ccc(-c2ccc(F)cc2)o1`: under setting [2], the half-maximal activity concentration (AC50) was 0.00355 µM [falling, full curve].

Consider `N#C/C(=C\c1ccccc1)C(=O)N(c1ccccn1)C1CCCCC1`, for which the AC50 is 12.6 µM [rising, single point] under setting [1] and 15.8 µM [rising, single point] under setting [2].

As to `C1=C(CCNc2nnnn2-c2ccccc2)CCCC1`, the AC50 reads like this: under setting [1], 35.5 µM [rising, single point]; under setting [2], 31.6 µM [rising, single point].

Take `CCC(C)C(=O)Nc1nc(C)c(-c2csc(Nc3ccccc3OC)n2)s1` (centres undefined): the half-maximal activity concentration (AC50) under setting [2] is 31.6 µM [rising, single point].

For the compound `CCSC1=NC2(CCN(C(=O)NC3CCCCC3)CC2)N=C1c1ccc(C)cc1`, the concentration at half-maximal activity (AC50) under setting [2] was 0.0224 µM [falling, full curve].

With `Cc1cc(/C=C(\C#N)C(=O)NCc2cccs2)c(C)n1-c1ccccc1F`, the half-maximal activity concentration (AC50) under setting [1] is 35.5 µM [rising, single point].

On to `CN=c1sc2ccccc2n1CC(O)c1ccccc1` (centres undefined), for which the AC50 is 22.4 µM [falling, partial curve] under setting [1] and 12.6 µM [falling, partial curve] under setting [2].

On to `O=C(Nc1nc(-c2ccc(Cl)cc2Cl)cs1)C1CCCO1` (centres undefined), for which the half-maximal activity concentration (AC50) under setting [2] was 22.4 µM [rising, single point].

For `Cc1cccc(NC(=O)CSc2nnc(-c3ccccc3C)o2)c1`, the AC50 under setting [2] was 15.8 µM [rising, partial curve, poor fit].

As to `CCC(C)Sc1cc(C)c(C#N)c2nc3ccccc3n12` (centres undefined), under setting [2], the AC50 is 1.26 µM [rising, full curve].

With `Cc1[nH]n(-c2ccc(Cl)cc2)c(=O)c1C=Nc1ccc(S(=O)(=O)N2CCOCC2)cc1`, the AC50 under setting [2] is 14.1 µM [rising, single point].

Regarding `CCCCOc1ccc(C(=O)NCC2(c3ccccc3)CCOCC2)cc1`, the AC50 under setting [1] was 20 µM [rising, single point].

Regarding `Cc1nn(Cc2ccccc2)c2sc(C(=O)NCc3cccnc3)cc12`, the AC50 runs as follows: under setting [1], 2.82 µM [rising, partial curve]; under setting [2], 12.6 µM [rising, partial curve].

Take `CCOC(=O)c1c(NC(=O)CN2CCN(C(=O)c3ccco3)CC2)sc2c1CCCC2`: the AC50 under setting [2] is 12.6 µM [rising, single point].

On to `Nc1ccccc1C(=O)N/N=C1\C2CN3CCN(C2)CC1(c1ccccc1)C3`, for which the AC50 under setting [2] is 0.0158 µM [falling, full curve, poor fit].

Regarding `Cn1c(=O)c2ncn(CC(=O)Nc3cc(C(F)(F)F)ccc3N3CCOCC3)c2n(C)c1=O`, under setting [2], the AC50 was 0.0251 µM [falling, full curve, poor fit].

Take `N#C/C(=C\c1ccccc1)C(=O)Nc1nncs1`: the concentration at half-maximal activity (AC50) under setting [2] is 0.02 µM [rising, full curve, poor fit].

As to `S=C(NC1CCCCC1)N1CCN(C/C=C/c2ccccc2)CC1`, the concentration at half-maximal activity (AC50) was 15.8 µM [rising, partial curve, poor fit] under setting [1] and 28.2 µM [rising, partial curve] under setting [2].

On to `CCn1c2ccccc2c2nnc(SCC(=O)Nc3c(C)n(C)n(-c4ccccc4)c3=O)nc21`, for which, under setting [2], the AC50 is 31.6 µM [rising, single point].

In the case of `CNc1nc(N)c(C(=O)C23CC4CC(CC(C4)C2)C3)s1`, the half-maximal activity concentration (AC50) reads like this: under setting [1], 1.12 µM [falling, partial curve]; under setting [2], 1.41 µM [falling, partial curve].

On to `NC(=S)N/N=C1/CCSc2ccc3ccccc3c21`, for which the half-maximal activity concentration (AC50) under setting [2] is 14.1 µM [falling, single point].

On to `O=C(O)c1ccccc1SCC(=O)N1CCOCC1`, for which the AC50 under setting [1] is 0.355 µM [rising, full curve, poor fit].

Take `COc1ccc(/C(C)=N/OCC(=O)Nc2nc3ccccc3s2)cc1`: the AC50 was 11.2 µM [rising, single point] under setting [1] and 14.1 µM [rising, single point] under setting [2].

Consider `Cc1csc2nc(COC(=O)c3ccccc3NC(=O)c3ccccc3Cl)cc(=O)n12`, for which the half-maximal activity concentration (AC50) under setting [1] is 0.355 µM [rising, full curve] and the AC50 under setting [2] is 0.224 µM [rising, partial curve, poor fit].

Consider `CCOC(=O)c1[nH]c(C)c(CCC(=O)Nc2cc(Cl)ccc2C)c1C`, for which the AC50 under setting [1] is 0.251 µM [rising, full curve, poor fit].

With `Cc1csc(NC(=O)c2nc(-c3ccccc3)n(-c3ccccc3)n2)n1`, under setting [2], the concentration at half-maximal activity (AC50) is 11.2 µM [rising, single point].

Consider `COc1ccc(C(=O)NCC(c2cccnc2)N2CCc3ccccc3C2)cc1` (centres undefined), for which, under setting [2], the AC50 is 0.00316 µM [falling, full curve, poor fit].

On to `COc1cc(OC)cc(C(=O)Nn2c(C)nc3ccccc3c2=O)c1`, for which, under setting [2], the concentration at half-maximal activity (AC50) was 17.8 µM [rising, single point].

Consider `Cc1cc(NC(=O)c2cc(-c3ccncc3)nc3c(C)cccc23)no1`, for which the AC50 is, setting by setting: under setting [1], 20 µM [falling, single point]; under setting [2], 35.5 µM [falling, single point].

In the case of `O=S(=O)(NCC(c1ccco1)N1CCN(c2ccc(F)cc2)CC1)c1ccc2c(c1)OCCO2` (centres undefined), the AC50 under setting [1] was 25.1 µM [rising, single point] and the concentration at half-maximal activity (AC50) under setting [2] was 22.4 µM [rising, partial curve].

Broadly, the AC50 is the concentration at which the activity in the assay is half-maximal.
